Reference: the supplement of paper PMC5355238
Several values for one entry are separate records, joined by “and”; a condition that tells them apart may be missing. Equal values may be shown once. Where a name gives a salt, the structure may show the parent alone. Some of the results follow. Most entries show no effect beyond the scatter of the controls.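 Using flow cytometry, the assay measures the median γH2AX antibody signal in S-phase Reh cells (a human leukemia line). Each score is the number of standard deviations from the median difference of paired plate sets. Candidate hits scored above 2.5; compounds scoring below -2 lowered MK1775-induced damage.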

These compounds were tested on Reh (assay: Z' of S-phase gammaH2AX difference (drug + MK1775 minus drug alone) (Z-score); higher = stronger synergistic S-phase DNA damage with MK1775). Conditions: MK1775 concentration 400 nM; first compound 10 µM; 4 h.
For CC(COc1ccc(/C=C/c2ccccc2)cc1)[N+](C)(C)C (configuration not stated) + C=CCn1c(=O)c2cnc(Nc3ccc(N4CCN(C)CC4)cc3)nc2n1-c1cccc(C(C)(C)O)n1 [MK1775], the “Z' of S-phase gammaH2AX difference (Z-score)” value was inactive: -1.14.
In the case of O=C(N[C@@H](Cc1ccccc1)C(=O)CCl)OCc1ccccc1 [Z-L-Phe chloromethyl ketone] + C=CCn1c(=O)c2cnc(Nc3ccc(N4CCN(C)CC4)cc3)nc2n1-c1cccc(C(C)(C)O)n1 [MK1775], the “Z' of S-phase gammaH2AX difference (Z-score)” value is reported as inactive: -0.538.
CC(C)(C)c1[nH]cnc1/C=c1\[nH]c(=O)/c(=C/c2ccccc2)[nH]c1=O [NPI-2358 (Plinabulin)] + C=CCn1c(=O)c2cnc(Nc3ccc(N4CCN(C)CC4)cc3)nc2n1-c1cccc(C(C)(C)O)n1 [MK1775] was tested, and the “Z' of S-phase gammaH2AX difference (Z-score)” value was inactive: -0.088.
Cc1scc2c1N(C(=O)CN1CCN(C)CC1)c1ccccc1NC2=O [Telenzepine dihydrochloride] + C=CCn1c(=O)c2cnc(Nc3ccc(N4CCN(C)CC4)cc3)nc2n1-c1cccc(C(C)(C)O)n1 [MK1775] was tested, and the “Z' of S-phase gammaH2AX difference (Z-score)” value was inactive: 0.117.
With CN(C)CCC(c1ccc(Cl)cc1)c1ccccn1 (single isomer, unassigned; (+)) [(+)-Chlorpheniramine maleate] + C=CCn1c(=O)c2cnc(Nc3ccc(N4CCN(C)CC4)cc3)nc2n1-c1cccc(C(C)(C)O)n1 [MK1775] the “Z' of S-phase gammaH2AX difference (Z-score)” value was inactive: 0.962.
CO/N=C(\C(=O)N[C@@H]1C(=O)N2C(C(=O)O)=C(CSc3nc(=O)c(O)nn3C)CS[C@H]12)c1csc(N)n1 [Ceftriaxone sodium] + C=CCn1c(=O)c2cnc(Nc3ccc(N4CCN(C)CC4)cc3)nc2n1-c1cccc(C(C)(C)O)n1 [MK1775] was tested, and the “Z' of S-phase gammaH2AX difference (Z-score)” value was inactive: 0.778.
For COc1cccc(NC(=O)/C=C/c2ccc(Cl)cc2)c1 + C=CCn1c(=O)c2cnc(Nc3ccc(N4CCN(C)CC4)cc3)nc2n1-c1cccc(C(C)(C)O)n1 [MK1775], the “Z' of S-phase gammaH2AX difference (Z-score)” value was inactive: 0.938.
CCCCN1CCC(COC(=O)c2cc(Cl)c(N)c3c2OCCO3)CC1 + C=CCn1c(=O)c2cnc(Nc3ccc(N4CCN(C)CC4)cc3)nc2n1-c1cccc(C(C)(C)O)n1 [MK1775] was tested, and the “Z' of S-phase gammaH2AX difference (Z-score)” value was inactive: -0.263.
In the case of Oc1ccccc1O [Pyrocatechol] + C=CCn1c(=O)c2cnc(Nc3ccc(N4CCN(C)CC4)cc3)nc2n1-c1cccc(C(C)(C)O)n1 [MK1775], the “Z' of S-phase gammaH2AX difference (Z-score)” value is reported as inactive: 0.565.
In the case of FC(F)(F)c1ccccc1-n1ccnc1 [1-[2-(Trifluoromethyl)phenyl]imidazole] + C=CCn1c(=O)c2cnc(Nc3ccc(N4CCN(C)CC4)cc3)nc2n1-c1cccc(C(C)(C)O)n1 [MK1775], the “Z' of S-phase gammaH2AX difference (Z-score)” value is reported as inactive: -1.61.
In the case of CCCCOC(=O)NS(=O)(=O)c1sc(CC(C)C)cc1-c1ccc(Cn2c(CC)nc3c(C)cc(C)nc32)cc1 + C=CCn1c(=O)c2cnc(Nc3ccc(N4CCN(C)CC4)cc3)nc2n1-c1cccc(C(C)(C)O)n1 [MK1775], the “Z' of S-phase gammaH2AX difference (Z-score)” value is reported as inactive: 0.109.
In the case of CC(C)(C)NC[C@H](O)COc1nsnc1N1CCOCC1 [S(-)-Timolol maleate] + C=CCn1c(=O)c2cnc(Nc3ccc(N4CCN(C)CC4)cc3)nc2n1-c1cccc(C(C)(C)O)n1 [MK1775], the “Z' of S-phase gammaH2AX difference (Z-score)” value is reported as inactive: 0.468.
C[C@]12CCC(=O)C=C1CC[C@@H]1[C@@H]2[C@@H](O)C[C@@]2(C)[C@H]1CC[C@]2(O)C(=O)COC(=O)CCC(=O)O [Hydrocortisone 21-hemisuccinate sodium] + C=CCn1c(=O)c2cnc(Nc3ccc(N4CCN(C)CC4)cc3)nc2n1-c1cccc(C(C)(C)O)n1 [MK1775] was tested, and the “Z' of S-phase gammaH2AX difference (Z-score)” value was inactive: -0.265.
With Cc1ccc(C(=O)Nc2ccc(CN3CCN(C)CC3)c(C(F)(F)F)c2)cc1C#Cc1cnc2cccnn12 + C=CCn1c(=O)c2cnc(Nc3ccc(N4CCN(C)CC4)cc3)nc2n1-c1cccc(C(C)(C)O)n1 [MK1775] the “Z' of S-phase gammaH2AX difference (Z-score)” value was inactive: -1.08.
O=C1CCC(c2ccc(-n3ccnc3)cc2)=NN1 [Imazodan] + C=CCn1c(=O)c2cnc(Nc3ccc(N4CCN(C)CC4)cc3)nc2n1-c1cccc(C(C)(C)O)n1 [MK1775] was tested, and the “Z' of S-phase gammaH2AX difference (Z-score)” value was inactive: 0.0462.
For CCNC(=O)N1CCN(CCCC(c2ccc(F)cc2)c2ccc(F)cc2)CC1 [Amperozide hydrochloride] + C=CCn1c(=O)c2cnc(Nc3ccc(N4CCN(C)CC4)cc3)nc2n1-c1cccc(C(C)(C)O)n1 [MK1775], the “Z' of S-phase gammaH2AX difference (Z-score)” value was inactive: 0.331.
Fc1ccc(C(OCCCc2cnc[nH]2)c2ccc(F)cc2)cc1 + C=CCn1c(=O)c2cnc(Nc3ccc(N4CCN(C)CC4)cc3)nc2n1-c1cccc(C(C)(C)O)n1 [MK1775] was tested, and the “Z' of S-phase gammaH2AX difference (Z-score)” value was inactive: 0.551.
For CCc1cccc(N(C)C(=N)Nc2cccc3ccccc23)c1 + C=CCn1c(=O)c2cnc(Nc3ccc(N4CCN(C)CC4)cc3)nc2n1-c1cccc(C(C)(C)O)n1 [MK1775], the “Z' of S-phase gammaH2AX difference (Z-score)” value was inactive: -0.174.
For Nc1nc(F)nc2c1ncn2[C@@H]1O[C@H](CO)[C@@H](O)[C@@H]1O [Fludarabine (Fludara)] + C=CCn1c(=O)c2cnc(Nc3ccc(N4CCN(C)CC4)cc3)nc2n1-c1cccc(C(C)(C)O)n1 [MK1775], the “Z' of S-phase gammaH2AX difference (Z-score)” value was active: 2.7.
In the case of O=C(NCCS(=O)(=O)c1ccc(C(F)(F)F)cn1)c1ccc(Cl)cc1 + C=CCn1c(=O)c2cnc(Nc3ccc(N4CCN(C)CC4)cc3)nc2n1-c1cccc(C(C)(C)O)n1 [MK1775], the “Z' of S-phase gammaH2AX difference (Z-score)” value is reported as inactive: 0.36.
For CC(C)CC(=O)Nc1n[nH]c2c1CN(C(=O)C1CCN(C)CC1)C2(C)C + C=CCn1c(=O)c2cnc(Nc3ccc(N4CCN(C)CC4)cc3)nc2n1-c1cccc(C(C)(C)O)n1 [MK1775], the “Z' of S-phase gammaH2AX difference (Z-score)” value was inactive: -0.979.
For CC(N)=O [Acetamide] + C=CCn1c(=O)c2cnc(Nc3ccc(N4CCN(C)CC4)cc3)nc2n1-c1cccc(C(C)(C)O)n1 [MK1775], the “Z' of S-phase gammaH2AX difference (Z-score)” value was inactive: -0.398.
CN1CC[C@H](c2c(O)cc(O)c3c(=O)cc(-c4ccccc4Cl)oc23)[C@H](O)C1 [Flavopiridol hydrochloride] + C=CCn1c(=O)c2cnc(Nc3ccc(N4CCN(C)CC4)cc3)nc2n1-c1cccc(C(C)(C)O)n1 [MK1775] was tested, and the “Z' of S-phase gammaH2AX difference (Z-score)” value was inactive: -1.29.
In the case of Nc1nc(Cl)nc2c1ncn2[C@@H]1O[C@H](CO)[C@@H](O)[C@@H]1F [Clofarabine] + C=CCn1c(=O)c2cnc(Nc3ccc(N4CCN(C)CC4)cc3)nc2n1-c1cccc(C(C)(C)O)n1 [MK1775], the “Z' of S-phase gammaH2AX difference (Z-score)” value is reported as inactive: 0.684.
In the case of O=C1CN2Cc3c(ccc(Cl)c3Cl)N=C2N1 [Anagrelide hydrochloride] + C=CCn1c(=O)c2cnc(Nc3ccc(N4CCN(C)CC4)cc3)nc2n1-c1cccc(C(C)(C)O)n1 [MK1775], the “Z' of S-phase gammaH2AX difference (Z-score)” value is reported as inactive: 0.57.
For O=C1CN2Cc3c(ccc(Cl)c3Cl)N=C2N1 [Anagrelide] + C=CCn1c(=O)c2cnc(Nc3ccc(N4CCN(C)CC4)cc3)nc2n1-c1cccc(C(C)(C)O)n1 [MK1775], the “Z' of S-phase gammaH2AX difference (Z-score)” value was inactive: -0.0362.
With CN(C)Cc1c(C(=O)NCCOc2ccc(C(=O)NO)cc2)oc2ccccc12 + C=CCn1c(=O)c2cnc(Nc3ccc(N4CCN(C)CC4)cc3)nc2n1-c1cccc(C(C)(C)O)n1 [MK1775] the “Z' of S-phase gammaH2AX difference (Z-score)” value was inactive: -0.0274.
For N=C(N)SCCc1cccc(CCSC(=N)N)c1 [1,3-PBIT dihydrobromide] + C=CCn1c(=O)c2cnc(Nc3ccc(N4CCN(C)CC4)cc3)nc2n1-c1cccc(C(C)(C)O)n1 [MK1775], the “Z' of S-phase gammaH2AX difference (Z-score)” value was inactive: 1.08.
O=c1cc(-c2ccc(O)cc2)oc2cc(O)cc(O)c12 [Apigenin] + C=CCn1c(=O)c2cnc(Nc3ccc(N4CCN(C)CC4)cc3)nc2n1-c1cccc(C(C)(C)O)n1 [MK1775] was tested, and the “Z' of S-phase gammaH2AX difference (Z-score)” value was inactive: -1.03.
C[C@@H](N)[C@H]1CC[C@H](C(=O)Nc2ccncc2)CC1 + C=CCn1c(=O)c2cnc(Nc3ccc(N4CCN(C)CC4)cc3)nc2n1-c1cccc(C(C)(C)O)n1 [MK1775] was tested, and the “Z' of S-phase gammaH2AX difference (Z-score)” value was inactive: 0.0806 and inactive: 0.371.
CN(C)CCN(Cc1cccs1)c1ccccn1 [Methapyrilene hydrochloride] + C=CCn1c(=O)c2cnc(Nc3ccc(N4CCN(C)CC4)cc3)nc2n1-c1cccc(C(C)(C)O)n1 [MK1775] was tested, and the “Z' of S-phase gammaH2AX difference (Z-score)” value was inactive: -0.306.
N=C1Sc2ccccc2C2=NCCCN12 + C=CCn1c(=O)c2cnc(Nc3ccc(N4CCN(C)CC4)cc3)nc2n1-c1cccc(C(C)(C)O)n1 [MK1775] was tested, and the “Z' of S-phase gammaH2AX difference (Z-score)” value was inactive: -0.218.
In the case of NC(=O)N1c2ccccc2C=Cc2ccccc21 [Carbamazepine] + C=CCn1c(=O)c2cnc(Nc3ccc(N4CCN(C)CC4)cc3)nc2n1-c1cccc(C(C)(C)O)n1 [MK1775], the “Z' of S-phase gammaH2AX difference (Z-score)” value is reported as inactive: -0.524.
For COc1cc2nc(N3CCN(C(=O)c4ccco4)CC3)nc(N)c2cc1OC [Prazosin hydrochloride] + C=CCn1c(=O)c2cnc(Nc3ccc(N4CCN(C)CC4)cc3)nc2n1-c1cccc(C(C)(C)O)n1 [MK1775], the “Z' of S-phase gammaH2AX difference (Z-score)” value was inactive: 0.15.
In the case of NCCS(=O)(=O)O [Taurine] + C=CCn1c(=O)c2cnc(Nc3ccc(N4CCN(C)CC4)cc3)nc2n1-c1cccc(C(C)(C)O)n1 [MK1775], the “Z' of S-phase gammaH2AX difference (Z-score)” value is reported as inactive: -0.00186.
In the case of N#CC(C#N)=C(N)/C(C#N)=C/c1ccc(O)cc1 [Tyrphostin AG 112] + C=CCn1c(=O)c2cnc(Nc3ccc(N4CCN(C)CC4)cc3)nc2n1-c1cccc(C(C)(C)O)n1 [MK1775], the “Z' of S-phase gammaH2AX difference (Z-score)” value is reported as inactive: -0.337.
In the case of COc1nc(C)nc(Cl)c1NC1=NCCN1 [Moxonidine hydrochloride] + C=CCn1c(=O)c2cnc(Nc3ccc(N4CCN(C)CC4)cc3)nc2n1-c1cccc(C(C)(C)O)n1 [MK1775], the “Z' of S-phase gammaH2AX difference (Z-score)” value is reported as inactive: 0.422.
